Test results as given in publication PMC8213698.
These are yes or no findings as the source states them, for the method shown. Binding seen in cells or lysates may run through a third protein. Binding can be weak; no strength is given.

Target: T1, Irisin (UniProt Q8NAU1)
T1 sequence: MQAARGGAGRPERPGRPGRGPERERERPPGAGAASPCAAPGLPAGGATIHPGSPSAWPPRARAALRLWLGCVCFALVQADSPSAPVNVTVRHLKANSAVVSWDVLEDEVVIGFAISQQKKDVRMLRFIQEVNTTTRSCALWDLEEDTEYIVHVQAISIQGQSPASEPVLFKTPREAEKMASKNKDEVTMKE
Assay: co-IP; lysate of BM-MSCs (Irisin-overexpressing against negative controls) in immunoprecipitation buffer with DNase I and protease inhibitors; 5 µg antibody against Irisin or Integrin αV at 4 °C overnight, Protein A agarose beads 2 h at room temperature; SDS-PAGE and WB

## Integrin αV (human (endogenous in BM-MSCs)) (receptor)
  binding: binds
